This is one part of the list. Construct or isoform of the protein are uncertain.
These sequences were tested against T1, ELF2 (UniProt Q15723) (assay: DAPPL (digital affinity profiling via proximity ligation, sequencing)). Details: 10 mM Tris-HCl pH 7.5, 50 mM NaCl, 1 mM DTT, 4% glycerol, room temperature, 30 min; GST-TFs on glutathione beads, 16-mer random dsDNA library, 0.1% …; high values mean tight binding; double strand, one strand shown; scale: fold enrichment (6-mer frequency, TF over GST control).
T1 sequence: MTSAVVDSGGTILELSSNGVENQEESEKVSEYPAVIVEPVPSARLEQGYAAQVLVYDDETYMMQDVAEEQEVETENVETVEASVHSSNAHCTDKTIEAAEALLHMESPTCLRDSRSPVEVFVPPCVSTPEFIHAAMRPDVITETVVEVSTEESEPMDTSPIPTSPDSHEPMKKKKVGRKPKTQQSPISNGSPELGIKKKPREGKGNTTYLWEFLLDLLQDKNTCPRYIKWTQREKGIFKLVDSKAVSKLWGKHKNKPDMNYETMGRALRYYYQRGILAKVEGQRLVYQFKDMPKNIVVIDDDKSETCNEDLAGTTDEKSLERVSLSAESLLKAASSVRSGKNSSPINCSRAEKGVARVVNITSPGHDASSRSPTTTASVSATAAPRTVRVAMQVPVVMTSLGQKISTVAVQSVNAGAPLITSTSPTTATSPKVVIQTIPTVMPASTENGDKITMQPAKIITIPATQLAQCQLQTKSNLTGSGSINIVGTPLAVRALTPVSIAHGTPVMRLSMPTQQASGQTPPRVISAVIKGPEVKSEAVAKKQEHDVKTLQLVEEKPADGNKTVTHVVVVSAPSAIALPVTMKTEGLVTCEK

| Sequence | binding signal |
| --- | --- |
| TAATAC | 1.12 |
| GATCTA | 0.969 |
| TGTATG | 1.19 |
| TTTTCG | 1.16 |
| TTGCTC | 1.18 |
| ATTTTG | 1.2 |
| AAAGAT | 1.2 |
| TCTTCG | 1.36 |
| AACCGA | 1 |
| TGCTGG | 1.09 |
| TCGAGG | 0.737 |
| GCCTAA | 1.12 |
| CCAGAA | 0.987 |
| ATTGTC | 1.11 |
| CTGACA | 1.18 |
| CCCATA | 1.21 |
| TTTTTC | 1.28 |
| CAGATA | 0.918 |
| TTGGTA | 1.17 |
| CCCCGA | 1.08 |

Some of the entries so far, with tabs:
Sequence	binding signal
TGTATG	1.19
TTTTCG	1.16

Following part.

| Sequence | binding signal |
| --- | --- |
| GGATTC | 0.954 |
| TAGTTC | 1.62 |
| TATACC | 1.22 |
| GTGCTA | 1.07 |
| ATTCAC | 1.23 |
| TTTCCC | 1.9 |
| CTACTG | 1.21 |
| CCGCTT | 2.12 |
| TCTACA | 1.17 |
| TCACGT | 1.16 |
| TGATCC | 1.27 |
| GGATCT | 1.01 |
| ATCTGG | 1.14 |
| CTGGCT | 1.2 |
| AGATGC | 1.02 |
| CAGATG | 0.961 |
| AACCCC | 1.15 |
| ACGGCT | 1.03 |
| CTCTCC | 1.26 |

From article PMC7862700
